# Assay results as given in PMC8056383.
# The chains behind the UniProt entries cited, without tags or fusion partners. Where a name states a change or a piece, a line headed by the entry shows the natural chain unless it says otherwise. Residues count along the entry.
# UniProt Q9RA63: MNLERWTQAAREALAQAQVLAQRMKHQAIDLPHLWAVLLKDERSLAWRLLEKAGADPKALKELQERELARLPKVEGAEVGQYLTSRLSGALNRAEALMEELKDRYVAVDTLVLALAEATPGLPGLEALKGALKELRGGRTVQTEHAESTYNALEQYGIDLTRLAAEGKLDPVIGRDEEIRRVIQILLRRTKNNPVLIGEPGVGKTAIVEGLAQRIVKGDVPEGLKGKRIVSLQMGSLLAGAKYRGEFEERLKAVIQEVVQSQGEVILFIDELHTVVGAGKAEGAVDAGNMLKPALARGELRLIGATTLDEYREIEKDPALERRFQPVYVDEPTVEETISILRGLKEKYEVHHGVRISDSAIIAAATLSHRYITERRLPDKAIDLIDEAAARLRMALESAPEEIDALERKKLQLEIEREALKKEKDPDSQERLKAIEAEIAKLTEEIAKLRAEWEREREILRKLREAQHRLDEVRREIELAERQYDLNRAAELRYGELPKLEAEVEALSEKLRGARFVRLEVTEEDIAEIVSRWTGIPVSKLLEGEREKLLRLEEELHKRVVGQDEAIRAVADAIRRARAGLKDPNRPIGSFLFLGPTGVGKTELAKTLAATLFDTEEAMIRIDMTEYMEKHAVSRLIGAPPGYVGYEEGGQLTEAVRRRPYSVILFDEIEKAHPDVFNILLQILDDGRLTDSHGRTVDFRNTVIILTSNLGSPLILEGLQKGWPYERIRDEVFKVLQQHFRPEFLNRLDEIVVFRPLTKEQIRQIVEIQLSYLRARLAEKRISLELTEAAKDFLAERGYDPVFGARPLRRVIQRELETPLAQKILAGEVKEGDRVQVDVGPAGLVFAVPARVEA
# ΔNClpB, Thermus thermophilus ClpB lacking the N-terminal domain: residues 141-854 of Q9RA63
# These are yes or no findings as the source states them, for the method shown.
# Key:
# [1] = target: ΔNClpB, Thermus thermophilus ClpB lacking the N-terminal domain (Thermus thermophilus) (UniProt Q9RA63); assay: native gel or EMSA; native polyacrylamide gel electrophoresis; ΔNClpB and the isolated NTD mixed together at 40 μM ΔNClpB and 650 μM NTD; both purified
# [2] = target: ΔNClpB, Thermus thermophilus ClpB lacking the N-terminal domain (Thermus thermophilus) (UniProt Q9RA63); assay: SEC; ΔNClpB and the isolated NTD mixed together at 40 μM ΔNClpB and 650 μM NTD; both purified
substance,measurement,setting,value
isolated N-terminal domain of ClpB (residues 1–141) (from UniProt Q9RA63 1-141) (domain or fragment),binding,[1],no binding (tested: 40 μM ΔNClpB and 650 μM NTD)
same,binding,[2],no binding (tested: 40 μM ΔNClpB and 650 μM NTD)
